The source of these data is PubChem BioAssay AID493014 (National Center for Advancing Translational Sciences (NCATS), 2011).

Some of the results follow. Shown are side measurements of this screen, not its main read-out; they come without a call. Compounds called inactive in the main read-out are mostly missing here. Words in brackets tell the shape of the fitted curve; partial curves, single points and poor fits give uncertain potencies.

The experiment is described as follows: qHTS Assay to Find Inhibitors of Chronic Active B-Cell Receptor Signaling. Conditions: ABC-DLBCL IkBa-CBG/CBR reporter, luminescence ratio (green luciferase fused to IkBa over red control in TMD8 lymphoma cells), 4 h. The procedure, abridged: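 TMD8 human ABC-DLBCL cells with doxycycline-inducible IκBα–green luciferase fusion and unfused red luciferase, in 0.5% FBS medium; compounds up to 46 uM, 4 h at 37C. Green/red luminescence ratio, filter-overlap corrected, fitted to concentration-response curves.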
(Quantitative high-throughput screening tests each substance at several concentrations.)

Where [1] appears, read: measured here: CBR red luminescence, cell number.
Where [2] appears, read: measured here: IkBa-CBG green luminescence.

For orientation: AC50 means the concentration giving half of the maximal activity seen.

Regarding `COC(=O)C(=C/C(C)=C/c1cccnc1)C(=O)OC`, under setting [1], the AC50 was 11.2 µM [falling, partial curve, poor fit].
Regarding `CCc1ncc(/C=C2\C(=O)Nc3ccccc32)[nH]1`, the AC50 reads like this: under setting [1], 35.5 µM [falling, single point]; under setting [2], 35.5 µM [rising, partial curve, poor fit].
Consider `Cc1ccsc1/C=C(\CC(=O)O)c1nc2ccccc2o1`, for which the AC50 under setting [1] was 35.5 µM [rising, partial curve, poor fit].
Still for that read-out and setting: then `O=C(N/N=C/c1ccncc1)c1cc([N+](=O)[O-])cc([N+](=O)[O-])c1O`, with 1.26 µM [falling, full curve]; and `Cc1cc(NC(=O)C2CC(c3ccc(F)cc3)=NO2)n(-c2ccccc2)n1` (centres undefined), with 0.731 µM [falling, full curve, poor fit]; and `Cc1cc(F)ccc1NC(=O)CCc1c(C)nn(-c2ccc(N3CCCCC3)nn2)c1C`, with 6.31 µM [falling, partial curve, poor fit].
Same read-out and setting: then `CC1(C)OC(=O)C(=CNc2ccccc2)C(=O)O1`, with 15.8 µM [rising, single point].
In the case of `O=C(CN1C(=O)C2CCCCC2C1=O)Nc1nc(-c2ccc(F)cc2)cs1` (centres undefined), under setting [1], the concentration at half-maximal activity (AC50) was 8.2 µM [falling, partial curve].
The same measure, in the same setting: then `N/C(=N\OC(=O)c1ccc(Cl)cc1)c1ccc(Cl)cc1`, with 1.64 µM [rising, partial curve, poor fit]; and `CCn1cc(NC(=O)CCl)c(C)n1`, with 17.8 µM [falling, partial curve, poor fit].
As for `O=C(NC(=S)Nc1cccc2ncccc12)c1ccccc1`, under setting [1], the AC50 was 7.08 µM [falling, partial curve, poor fit].
Still for that read-out and setting: the value for `O=C(NC1=NCCS1)c1cc(-c2ccc(F)cc2)nc2ccccc12` was 29.1 µM [falling, single point].
In the case of `Cc1nc2ccc(S(=O)(=O)NCC(=O)N3CCCCC3)cc2s1`, the AC50 under setting [1] was 20.6 µM [rising, partial curve, poor fit].
The same measure, in the same setting: the value for `CC(C)Nc1cc(C(C)(C)C)nc2c(-c3ccccc3)cnn12` was 11.2 µM [rising, partial curve, poor fit].
On to `O=C1C=C(Nc2ccc(Cl)cc2Cl)CC(c2ccco2)C1` (centres undefined), for which the AC50 under setting [2] is 35.5 µM [falling, single point].
In the case of `C/C(=N/NC(=O)c1cccs1)c1c(C)[nH]n(-c2nc3ccccc3s2)c1=O`, under setting [1], the AC50 is 4.61 µM [falling, full curve].
Same read-out and setting: the value for `NC(=O)CC(NC(=O)c1ccccc1)c1ccc(NCCOc2ccccc2)c([N+](=O)[O-])c1` (centres undefined) was 3.55 µM [rising, single point].
For the compound `CCOc1cccc(-c2cc(-c3n[nH]c(=S)n3CC)c3ccccc3n2)c1`, the AC50 under setting [1] is 35.5 µM [falling, single point].
In the case of `CN(Cc1ccco1)c1ncnc2ccc(-c3ccc4c(ccn4C)c3)cc12`, the AC50 under setting [2] is 9.2 µM [falling, partial curve].
Take `Cn1c(=O)[nH]c(=O)c2c1nc(CN1CCN(c3cccc(Cl)c3)CC1)n2CCc1ccccc1`: the AC50 under setting [1] was 1.64 µM [rising, partial curve].
Still for that read-out and setting: the value for `C=CCn1c(O)c(N=NC(=O)c2cccnc2)c2cc(Br)ccc21` was 0.1 µM [falling, full curve].
Consider `CCCc1cc(=O)oc2cc(C)cc(OC(=O)c3ccco3)c12`, for which, under setting [1], the AC50 was 2.06 µM [rising, full curve, poor fit].
As for `CCCCn1c(-c2csc3c2CCCC3)n[nH]c1=S`, the AC50 under setting [1] is 32.6 µM [rising, partial curve, poor fit].
Still for that read-out and setting: then `CCCOc1ccc(C2C(C(=O)c3ccco3)=C(O)C(=O)N2CCCn2ccnc2)cc1` (centres undefined), with 0.282 µM [falling, full curve, poor fit].
Same read-out and setting: the value for `O=C(NC1CCCC1)c1cc2ccccc2o1` was 20 µM [falling, single point]; that for `CCOc1ccc(C(=O)N2CCN(C(=O)c3ccco3)CC2)cc1OCC` was 3.66 µM [rising, partial curve, poor fit]; that for `CC(C)=CCc1c(O)ccc(C(=O)Cc2ccccc2)c1O` was 12.6 µM [rising, partial curve, poor fit].
On the same count and under the same terms, the value for `COC(=O)CCNC(=O)Cc1c(C)n(C(=O)c2ccc(Cl)cc2)c2ccc(OC)cc12` was 17.8 µM [falling, partial curve, poor fit].
With `Cc1ccc(-n2c(SCC(=O)N3CCC(C(=O)O)CC3)nc3ccccc3c2=O)cc1C`, the AC50 under setting [1] was 5.01 µM [falling, partial curve, poor fit].
`Cc1nc(-c2ccccc2)sc1-c1n[nH]c(=S)n1C`: the AC50 under setting [1] was 0.891 µM [rising, full curve, poor fit].
On the same count and under the same terms, the value for `COCCn1c(-c2ccccc2)cnc1N` was 3.55 µM [rising, partial curve, poor fit].
For the compound `Nc1ccc(C(=O)N/N=C/c2sc(N3CCOCC3)nc2-c2ccccc2)cc1`, the AC50 was 20.6 µM [falling, partial curve] under setting [1] and 20.6 µM [falling, partial curve, poor fit] under setting [2].
On to `O=C(N/N=C/c1c[nH]c2ccccc12)c1cc(-c2cccc3ccccc23)n[nH]1`, for which, under setting [1], the AC50 is 6.51 µM [rising, single point].
In the case of `Cc1cc(Nc2ccccc2)nn1C(=O)c1ccc(Br)cc1`, the AC50 under setting [1] was 10.3 µM [rising, partial curve, poor fit].
Still for that read-out and setting: then `N#CCCn1cc(C(=O)Nc2ccc([N+](=O)[O-])cc2)c(-c2cc3ccccc3o2)n1`, with 12.6 µM [rising, single point]; and `N#Cc1c(NC(=O)c2cc([N+](=O)[O-])ccc2N2CCOCC2)sc2c1CCCC2`, with 2.59 µM [rising, partial curve, poor fit]; and `CCOC(=O)C1CSC(CC(=O)Nc2ccc(OC(F)(F)F)cc2)C(=O)N1` (centres undefined), with 1 µM [rising, full curve, poor fit].
In the case of `O=C(NC12CC3CC(CC(C3)C1)C2)c1ccc(-c2ccccc2Cl)o1`, the AC50 under setting [1] was 8.91 µM [rising, partial curve, poor fit].
On the same count and under the same terms, the value for `O=C(Nc1nccs1)c1cc(N2CCOCC2)nc2ccccc12` was 5.62 µM [falling, partial curve, poor fit].
Still for that read-out and setting: the value for `Cc1cccc(-c2nc3sc(C)cc3c(=O)o2)c1` was 3.98 µM [falling, full curve, poor fit].
Regarding `O=C(O)c1nn(CCOc2c(Cl)cccc2Cl)c(=O)c2ccccc12`, the AC50 under setting [1] was 3.16 µM [rising, single point].
Still for that read-out and setting: the value for `Cc1cc(C)c2cc3c(N)c(C(=O)Nc4c(C)[nH]c(=O)[nH]c4=O)sc3nc2c1` was 13 µM [falling, partial curve, poor fit]; that for `Cc1ccc(-n2c(SCC(=O)N3CCOCC3)nnc2-c2cccnc2)cc1` was 2.51 µM [rising, full curve, poor fit]; that for `O=C(CCc1nnc2n(Cc3ccc(F)cc3)c(=O)c3ccccc3n12)NCCCN1CCOCC1` was 3.55 µM [falling, full curve, poor fit].
Regarding `Cc1ccc2c(CN3CCOCC3)cc(=O)oc2c1C`, the AC50 under setting [1] is 10 µM [rising, partial curve, poor fit].
The same measure, in the same setting: the value for `COc1cccc(N2CCN(c3ncccn3)CC2)c1` was 0.398 µM [rising, full curve, poor fit]; that for `Nc1ccc(C(=O)N/N=C/c2ccccc2)cc1` was 7.94 µM [falling, partial curve].
Still for that read-out and setting: then `COc1ccc(NC(=O)c2cccc(S(=O)(=O)N3CCc4ccccc43)c2)cn1`, with 5.01 µM [falling, partial curve, poor fit]; and `O=C(N/N=C/c1ccco1)c1cccc(NC(=O)c2cccc(Cl)c2)c1`, with 3.98 µM [falling, full curve].
Consider `O=C1CCCN1c1ccc(S(=O)(=O)NCCOc2ccccc2)cc1`, for which the AC50 under setting [1] was 0.092 µM [falling, partial curve, poor fit].
Still for that read-out and setting: then `CC(=O)c1ccc(N2CCN(C(=O)c3ccco3)C(C)C2)c(F)c1` (centres undefined), with 9.2 µM [rising, partial curve, poor fit]; and `O=[N+]([O-])c1cccc(-c2nc(-c3cccs3)c(-c3cccs3)[nH]2)c1`, with 35.5 µM [falling, single point].
Still for that read-out and setting: then `O=C(c1coc2ccc(O)cc12)C1CC1`, with 6.31 µM [rising, partial curve, poor fit]; and `Cc1cc(C(=O)N(C)C2CCCCC2)no1`, with 0.562 µM [rising, full curve, poor fit].
The same measure, in the same setting: then `COc1ccc(CCN(C(=O)c2snc(C(N)=O)c2N)C(C)C(=O)NC2CCCCC2)cc1OC` (centres undefined), with 0.1 µM [rising, full curve, poor fit]; and `O=C(CSc1nnnn1-c1ccc(F)cc1)Nc1ccc(N2CCOCC2)c(Cl)c1`, with 4.11 µM [rising, single point]; and `COc1ccccc1NC(=O)Oc1ccc(NC(=O)c2ccco2)cc1`, with 6.31 µM [falling, partial curve].
For `Cc1cc(-c2ccc(NC(=O)[C@@H]3CCCC[C@@H]3C(=O)O)c(C)c2)ccc1NC(=O)[C@@H]1CCCC[C@@H]1C(=O)O`, the AC50 under setting [1] is 35.5 µM [falling, single point].
For `CCn1c(SCC(=O)Nc2ccc(C(C)=O)cc2)nnc1C1CC1`, the AC50 under setting [1] is 0.355 µM [rising, full curve, poor fit].
Still for that read-out and setting: the value for `CCOc1ccc2nc(N3CCCCCC3)sc2c1` was 17.8 µM [falling, single point].
Same read-out and setting: then `COc1cccc(NC(=O)CN(C)C(=O)c2ccc3c(c2)CC(c2ccccc2)OC3=O)c1` (centres undefined), with 16.4 µM [falling, partial curve, poor fit]; and `Cc1ccccc1C(=O)Nc1nnc(-c2ccco2)o1`, with 11.2 µM [falling, partial curve, poor fit].
